This is one part of the list. These are further read-outs of the screen, such as a control signal, another cell line or another target. No call is given for them. The list favours compounds with an active or inconclusive main result. The note in brackets gives the kind of curve behind each potency; many fits are weak.
Test: qHTS Assay for Lipid Storage Modulators in Drosophila S3 Cells;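 on cell number change: cells counted by Cell Tracker Red CMTPX staining in the red channel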
Settings: BODIPY lipid droplet fluorescence, 18-24 h; for cell number change: measured here: cell count max response, cells fed with added oleic acid
Procedure, shortened: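 Laser-scanning cytometry quantifies lipid droplet accumulation (500–530 nm total intensity; droplet/cell object ratio) in oleic acid-fed (400 uM added) Drosophila S3 cells treated with a concentration series. 20 uM Triacsin C defined 100% inhibition.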

[1] = measured here: cell number channel AC50, cells fed with added oleic acid
[2] = measured here: lipid fluorescence (Fed channel) AC50, cells fed with added oleic acid

## Fc1ccccc1-c1csc(=Nc2cccnc2)n1CC1CCCO1 (configuration not stated)
  cell number change: -1.84%

## CC(C)(C)OC(=O)N1CCNc2ccccc2C1
  cell number change: 50.2%
[1]
  AC50: 10.3 µM [rising, partial curve]

## O=C(NCCC(=O)N1CCN(c2ccccc2O)CC1)c1ccc(Cl)cc1
  cell number change: -9.18%

## COc1cc(C(=S)N2CCN(C)CC2)ccc1OCC(=O)NCc1ccccc1
  cell number change: -14.9%
[2]
  AC50: 0.116 µM [rising, full curve, poor fit]

## CC(/C=C/c1ccccc1)=N/NC(=O)CCC(=O)Nc1ccccc1C
  cell number change: 6.74%

## O=C(N/N=C/c1ccc(COc2ccc(Br)cc2)o1)c1ccco1
  cell number change: 38.2%
[1]
  AC50: 1.46 µM [rising, partial curve]
[2]
  AC50: 2.31 µM [rising, partial curve]

## CC(=O)N1CCN(S(=O)(=O)c2cccc(C(=O)NNC(=O)COc3ccc(Cl)cc3C)c2)CC1
  cell number change: -36.9%

## OC(COCC1CC=CCC1)Cn1cnc2ccccc21 (configuration not stated)
  cell number change: 1.75%

## COCCn1c(C)nnc1SCC(=O)Nc1ccccc1[N+](=O)[O-]
  cell number change: 13.5%
[2]
  AC50: 0.13 µM [rising, full curve, poor fit]

## CCNCC(=O)Nc1ccc(N2CCOCC2)cc1
  cell number change: -11.1%
[1]
  AC50: 0.92 µM [falling, full curve, poor fit]
[2]
  AC50: 2.31 µM [falling, partial curve, poor fit]

## CNS(=O)(=O)c1cccc(C(=O)Nc2cccnc2)c1
  cell number change: 4.65%
[1]
  AC50: 4.61 µM [falling, partial curve, poor fit]
[2]
  AC50: 1.46 µM [falling, full curve]

## O=C(NCCO)/C(=C/c1cccc([N+](=O)[O-])c1)NC(=O)c1ccco1
  cell number change: -7.62%

## Cc1ccc(C(=O)CN(CCC(=O)O)C(=O)c2ccncc2)cc1
  cell number change: 10.1%

## O=C(OCC(=O)N1CCOCC1)c1ccccc1O
  cell number change: 13.1%
[2]
  AC50: 29.1 µM [rising, single point]

## O=C(CCOc1ccccc1F)N1CCN(c2ccccc2O)CC1
  cell number change: -20.4%
[2]
  AC50: 0.13 µM [falling, full curve, poor fit]

## O=C(Nc1ccc(F)cc1)Nc1ccc2ccccc2n1
  cell number change: 41.8%
[1]
  AC50: 16.4 µM [rising, partial curve, poor fit]

## O=C(OCCNC(=O)c1ccc2ccccc2n1)c1cccnc1
[1]
  AC50: 1.3 µM [rising, partial curve]

## O=S(=O)(c1ccc2ccccc2c1)N1CCC(c2nc(-c3ccncc3)no2)CC1
  cell number change: -31.7%
[1]
  AC50: 10.3 µM [falling, partial curve, poor fit]
[2]
  AC50: 14.6 µM [falling, partial curve, poor fit]

Reference: PubChem BioAssay AID2685 (National Center for Advancing Translational Sciences (NCATS), 2010)
